Assay results as given in patent publication US5473056.

The chains behind the UniProt entries cited, without tags or fusion partners. Where a name states a change or a piece, a line headed by the entry shows the natural chain unless it says otherwise. Residues count along the entry.
UniProt Q01094, 130-191: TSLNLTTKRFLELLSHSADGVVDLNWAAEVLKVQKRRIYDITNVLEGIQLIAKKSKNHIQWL
UniProt Q01094, 150-191: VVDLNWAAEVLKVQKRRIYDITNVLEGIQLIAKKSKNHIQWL
UniProt Q01094, 110-191: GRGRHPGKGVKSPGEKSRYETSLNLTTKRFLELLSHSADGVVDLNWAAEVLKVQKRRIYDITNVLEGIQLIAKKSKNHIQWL
UniProt Q01094, 120-191: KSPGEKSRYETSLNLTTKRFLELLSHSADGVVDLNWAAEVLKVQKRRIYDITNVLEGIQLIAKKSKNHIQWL
UniProt Q01094, 110-170: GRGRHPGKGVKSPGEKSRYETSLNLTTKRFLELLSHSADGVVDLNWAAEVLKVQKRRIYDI
UniProt Q14209, 87-244: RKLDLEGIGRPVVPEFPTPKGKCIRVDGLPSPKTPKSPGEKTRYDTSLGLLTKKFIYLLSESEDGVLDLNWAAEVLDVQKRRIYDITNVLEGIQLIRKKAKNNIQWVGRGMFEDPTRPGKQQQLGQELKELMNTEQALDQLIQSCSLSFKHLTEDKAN

Experiments:
Experiment in all cases: EMSA
[1] = test system: E2F-2 + HeLa E2F band 1 (Homo sapiens); conditions: very strong band after co-refolding; excess mutant competitor present; purified recombinant protein; label: 32P end
[2] = molecular target: E2F-1 (130-191) (Homo sapiens) (UniProt Q01094); conditions: text: any additional deletions reduced activity; protein in a lysate after overexpression; protein details: GST N-terminal (pGEX-2T); label: 32P end
[3] = molecular target: T1, E2F-1 (90-130) (Homo sapiens) (UniProt Q01094); conditions: lacks 171-191, complete loss; protein in a lysate after overexpression; protein details: GST N-terminal (pGEX-2T); label: 32P end
T1 sequence: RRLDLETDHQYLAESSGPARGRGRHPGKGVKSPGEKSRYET

[4] = molecular target: E2F-2 full length (Homo sapiens) (UniProt Q14209); conditions: purified recombinant protein; protein details: C-terminal Glu-Glu-Phe tubulin epitope; label: 32P end
[5] = test system: HeLa E2F band 5 (Homo sapiens); conditions: no signal individually under these conditions; purified native protein; label: 32P end
[6] = molecular target: E2F-1 (150-191) (Homo sapiens) (UniProt Q01094); conditions: text: any additional deletions reduced activity; protein in a lysate after overexpression; protein details: GST N-terminal (pGEX-2T); label: 32P end
[7] = molecular target: T2, E2F-1 (90-150) (Homo sapiens) (UniProt Q01094); conditions: lacks 171-191, complete loss; protein in a lysate after overexpression; protein details: GST N-terminal (pGEX-2T); label: 32P end
T2 sequence: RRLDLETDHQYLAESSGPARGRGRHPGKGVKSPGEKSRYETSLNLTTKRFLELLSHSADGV

[8] = test system: E2F-1 + HeLa E2F band 1 (Homo sapiens); conditions: identical to E2F-2 result; purified recombinant protein; label: 32P end
[9] = molecular target: E2F-1 (110-191) (Homo sapiens) (UniProt Q01094); conditions: wild-type activity; protein in a lysate after overexpression; protein details: GST N-terminal (pGEX-2T); label: 32P end
[10] = molecular target: E2F-1 (90-170) (Homo sapiens) (UniProt Q01094); conditions: deletion of 171-191 gives complete loss; protein in a lysate after overexpression; protein details: GST N-terminal (pGEX-2T); label: 32P end
[11] = test system: E2F-2 + HeLa E2F band 5 (Homo sapiens); conditions: no band after co-refolding; purified recombinant protein; label: 32P end
[12] = molecular target: E2F-1 (120-191) (Homo sapiens) (UniProt Q01094); conditions: reduced activity; protein in a lysate after overexpression; protein details: GST N-terminal (pGEX-2T); label: 32P end
[13] = test system: E2F-1 + HeLa E2F band 5 (Homo sapiens); conditions: identical to E2F-2 result; purified recombinant protein; label: 32P end
[14] = test system: HeLa E2F band 1 + band 5 (Homo sapiens); conditions: strong band on mixing and co-refolding; purified native protein; label: 32P end
[15] = molecular target: E2F-2 (87-244) (Homo sapiens) (UniProt Q14209); conditions: text states GST-E2F-2 fusions bind specifically; protein in a lysate after overexpression; protein details: GST N-terminal (pGEX-2T); label: 32P end
[16] = molecular target: E2F-1 (90-191) (Homo sapiens) (UniProt Q01094); conditions: crude lysate; reference activity; protein in a lysate after overexpression; protein details: GST N-terminal (pGEX-2T); label: 32P end
[17] = test system: HeLa E2F band 1 (Homo sapiens); conditions: no signal individually under these conditions; purified native protein; label: 32P end
[18] = molecular target: E2F-1 (110-170) (Homo sapiens) (UniProt Q01094); conditions: lacks 171-191, complete loss; protein in a lysate after overexpression; protein details: GST N-terminal (pGEX-2T); label: 32P end

Sequence: TAGTTTTCGATATTAAATTTGAGTTTTCGCGCGAAACTAG (double strand) [E2F probe, single palindromic site]
- binding result [1]: binds
- binding result [2]: binds more weakly
- binding result [3]: no binding
- binding result [4]: binds
- binding result [5]: no binding
- binding result [6]: binds more weakly
- binding result [7]: no binding
- binding result [8]: binds
- binding result [9]: binds
- binding result [10]: no binding
- binding result [11]: no binding
- binding result [12]: binds more weakly
- binding result [13]: no binding
- binding result [14]: binds
- binding result [15]: binds
- binding result [16]: binds
- binding result [17]: no binding
- binding result [18]: no binding

For part of these data: Results from cells or extracts need not show a direct contact. For part of these data: Negatives hold for the conditions tested. For part of these data: Where a protein sequence is shown, tags need not be part of it. For part of these data: The comparison behind a weaker result is the experiment's own reference, which may not be listed here. For part of these data: Construct, isoform or probe ends are uncertain for at least one entry.
